For 4 molecules, binding results are on record in doi:10.1101/2025.05.07.652675.

Sequences of proteins named here, by UniProt entry; tags and fusion partners are left off. Residues count along the entry.
UniProt P0A9A6, 316-370: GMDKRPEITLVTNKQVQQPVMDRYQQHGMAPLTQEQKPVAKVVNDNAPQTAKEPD
UniProt P0A9A6, 316-383: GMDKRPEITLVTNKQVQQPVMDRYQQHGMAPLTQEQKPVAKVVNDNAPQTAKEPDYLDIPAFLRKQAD

What all share (assay): two-hybrid
Assay [1] deals with FtsZ^316-370 (bacterial two-hybrid fusion) (E. coli) (UniProt P0A9A6).
Assay [2] deals with FtsZ^316-383 (bacterial two-hybrid fusion) (E. coli) (UniProt P0A9A6).
The target in assay [3] is T1, FtsZ^370-383 (bacterial two-hybrid fusion) (E. coli), P0A9A6.
T1 chain: DYLDIPAFLRKQAD
As to conditions: remark: other sources report otherwise.

The target in assay [4] is FtsZ^370-383 (bacterial two-hybrid fusion) (E. coli) (UniProt P0A9A6).

These are yes or no findings as the source states them, for the method shown. Some entries that bind do so weakly or less than the wild type. Where a sequence is shown, tags or fusion partners need not be part of it.

B1: SlmA (bacterial two-hybrid fusion) (protein, UniProt P0C093 1-198)
chain: MAEKQTAKRNRREEILQSLALMLESSDGSQRITTAKLAASVGVSEAALYRHFPSKTRMFDSLIEFIEDSLITRINLILKDEKDTTARLRLIVLLLLGFGERNPGLTRILTGHALMFEQDRLQGRINQLFERIEAQLRQVLREKRMREGEGYTTDETLLASQILAFCEGMLSRFVRSEFKYRPTDDFDARWPLIAAQLQ
As to B1, the binding result in assay [1] is “no binding”; in assay [2], “binds”.

B2: SlmA (bacterial two-hybrid fusion), P0C093 1-198 (protein)
chain: B1 chain
Consider B2, for which, in assay [3], the binding entry was “no binding”.

B3: FtsA (bacterial two-hybrid fusion) (protein, UniProt P0ABH0 1-420)
chain: MIKATDRKLVVGLEIGTAKVAALVGEVLPDGMVNIIGVGSCPSRGMDKGGVNDLESVVKCVQRAIDQAELMADCQISSVYLALSGKHISCQNEIGMVPISEEEVTQEDVENVVHTAKSVRVRDEHRVLHVIPQEYAIDYQEGIKNPVGLSGVRMQAKVHLITCHNDMAKNIVKAVERCGLKVDQLIFAGLASSYSVLTEDERELGVCVVDIGGGTMDIAVYTGGALRHTKVIPYAGNVVTSDIAYAFGTPPSDAEAIKVRHGCALGSIVGKDESVEVPSVGGRPPRSLQRQTLAEVIEPRYTELLNLVNEEILQLQEKLRQQGVKHHLAAGIVLTGGAAQIEGLAACAQRVFHTQVRIGAPLNITGLTDYAQEPYYSTAVGLLHYGKESHLNGEAEVEKRVTASVGSWIKRLNSWLRKEF
Take B3: the binding result in assay [4] is listed as “no binding”; in assay [1], “no binding”; in assay [2], “binds”.

B4: MinC (bacterial two-hybrid fusion) (protein, UniProt P18196 1-231)
chain: MSNTPIELKGSSFTLSVVHLHEAEPKVIHQALEDKIAQAPAFLKHAPVVLNVSALEDPVNWSAMHKAVSATGLRVIGVSGCKDAQLKAEIEKMGLPILTEGKEKAPRPAPTPQAPAQNTTPVTKTRLIDTPVRSGQRIYAPQCDLIVTSHVSAGAELIADGNIHVYGMMRGRALAGASGDRETQIFCTNLMAELVSIAGEYWLSDQIPAEFYGKAARLQLVENALTVQPLN
Regarding B4, the binding entry in assay [4] is recorded as “no binding”; in assay [1], “no binding”; in assay [2], “binds”.
